Reference: ChEMBL document CHEMBL4316593 (Eur J Med Chem, 2019)
Further values from the same series stand in other lists.

Assays:
Assay type in all cases: cell-based
Conditions in all cases: U-87MG ATCC
[1] = Inhibition of RTK/PI3K/AKT/mTOR signaling in human U87 cells assessed as down regulation of HIST1H2BC gene expression at cytotoxic IC50 measured after 48 hrs relative to control
[2] = Inhibition of RTK/PI3K/AKT/mTOR signaling in human U87 cells assessed as down regulation of ZNF503 gene expression at cytotoxic IC50 measured after 48 hrs relative to control
[3] = Inhibition of RTK/PI3K/AKT/mTOR signaling in human U87 cells assessed as down regulation of RALGAPA1 gene expression at cytotoxic IC50 measured after 48 hrs relative to control
[4] = Inhibition of RTK/PI3K/AKT/mTOR signaling in human U87 cells assessed as down regulation of DNAJA1 gene expression at cytotoxic IC50 measured after 48 hrs relative to control
[5] = Inhibition of RTK/PI3K/AKT/mTOR signaling in human U87 cells assessed as down regulation of NAGK gene expression at cytotoxic IC50 measured after 48 hrs relative to control
[6] = Inhibition of RTK/PI3K/AKT/mTOR signaling in human U87 cells assessed as down regulation of MRPL18 gene expression at cytotoxic IC50 measured after 48 hrs relative to control
[7] = Inhibition of RTK/PI3K/AKT/mTOR signaling in human U87 cells assessed as down regulation of KLF10 gene expression at cytotoxic IC50 measured after 48 hrs relative to control
[8] = Inhibition of RTK/PI3K/AKT/mTOR signaling in human U87 cells assessed as down regulation of CMTR1 gene expression at cytotoxic IC50 measured after 48 hrs relative to control
[9] = Inhibition of RTK/PI3K/AKT/mTOR signaling in human U87 cells assessed as down regulation of UBE2A gene expression at cytotoxic IC50 measured after 48 hrs relative to control
[10] = Inhibition of RTK/PI3K/AKT/mTOR signaling in human U87 cells assessed as down regulation of NCKAP1 gene expression at cytotoxic IC50 measured after 48 hrs relative to control
[11] = Inhibition of RTK/PI3K/AKT/mTOR signaling in human U87 cells assessed as down regulation of MSN gene expression at cytotoxic IC50 measured after 48 hrs relative to control
[12] = Inhibition of RTK/PI3K/AKT/mTOR signaling in human U87 cells assessed as down regulation of B2M gene expression at cytotoxic IC50 measured after 48 hrs relative to control
[13] = Inhibition of RTK/PI3K/AKT/mTOR signaling in human U87 cells assessed as up regulation of FKBP14 gene expression at cytotoxic IC50 measured after 48 hrs relative to control
[14] = Inhibition of RTK/PI3K/AKT/mTOR signaling in human U87 cells assessed as up regulation of microtubule associated serine/threonine kinase 1 gene expression at cytotoxic IC50 measured after 48 hrs relative to control
[15] = Inhibition of RTK/PI3K/AKT/mTOR signaling in human U87 cells assessed as up regulation of inositol 1,4,5-trisphosphate receptor interacting protein-like 1 gene expression at cytotoxic IC50 measured after 48 hrs relative to control
[16] = Inhibition of RTK/PI3K/AKT/mTOR signaling in human U87 cells assessed as up regulation of cathepsin C gene expression at cytotoxic IC50 measured after 48 hrs relative to control
[17] = Inhibition of RTK/PI3K/AKT/mTOR signaling in human U87 cells assessed as up regulation of zinc finger protein 146 gene expression at cytotoxic IC50 measured after 48 hrs relative to control
[18] = Inhibition of RTK/PI3K/AKT/mTOR signaling in human U87 cells assessed as up regulation of DDB1 and CUL4 associated factor 6 gene expression at cytotoxic IC50 measured after 48 hrs relative to control
[19] = Inhibition of RTK/PI3K/AKT/mTOR signaling in human U87 cells assessed as up regulation of La ribonucleoprotein domain family member 1 gene expression at cytotoxic IC50 measured after 48 hrs relative to control
[20] = Inhibition of RTK/PI3K/AKT/mTOR signaling in human U87 cells assessed as up regulation of ras-related C3 botulinum toxin substrate 2 (rho family, small GTP binding protein Rac2) gene expression at cytotoxic IC50 measured after 48 hrs relative to control
[21] = Inhibition of RTK/PI3K/AKT/mTOR signaling in human U87 cells assessed as up regulation of exosome component 2 gene expression at cytotoxic IC50 measured after 48 hrs relative to control
[22] = Inhibition of RTK/PI3K/AKT/mTOR signaling in human U87 cells assessed as up regulation of signal sequence receptor subunit 2 gene expression at cytotoxic IC50 measured after 48 hrs relative to control
[23] = Inhibition of RTK/PI3K/AKT/mTOR signaling in human U87 cells assessed as up regulation of hypoxia up-regulated 1 gene expression at cytotoxic IC50 measured after 48 hrs relative to control
[24] = Inhibition of RTK/PI3K/AKT/mTOR signaling in human U87 cells assessed as up regulation of LGALS3BP gene expression at cytotoxic IC50 measured after 48 hrs relative to control
[25] = Inhibition of RTK/PI3K/AKT/mTOR signaling in human U87 cells assessed as up regulation of PRMT1 gene expression at cytotoxic IC50 measured after 48 hrs relative to control
[26] = Inhibition of RTK/PI3K/AKT/mTOR signaling in human U87 cells assessed as up regulation of TSC22D1 gene expression at cytotoxic IC50 measured after 48 hrs relative to control
[27] = Inhibition of RTK/PI3K/AKT/mTOR signaling in human U87 cells assessed as up regulation of PLIN3 gene expression at cytotoxic IC50 measured after 48 hrs relative to control
[28] = Inhibition of RTK/PI3K/AKT/mTOR signaling in human U87 cells assessed as up regulation of MTHFD2 gene expression at cytotoxic IC50 measured after 48 hrs relative to control
[29] = Inhibition of RTK/PI3K/AKT/mTOR signaling in human U87 cells assessed as up regulation of RPL35A gene expression at cytotoxic IC50 measured after 48 hrs relative to control
[30] = Inhibition of RTK/PI3K/AKT/mTOR signaling in human U87 cells assessed as up regulation of LGALS3 gene expression at cytotoxic IC50 measured after 48 hrs relative to control
[31] = Inhibition of RTK/PI3K/AKT/mTOR signaling in human U87 cells assessed as up regulation of COL6A1 gene expression at cytotoxic IC50 measured after 48 hrs relative to control
[32] = Inhibition of RTK/PI3K/AKT/mTOR signaling in human U87 cells assessed as up regulation of SUMO2 gene expression at cytotoxic IC50 measured after 48 hrs relative to control

CC(=O)C(=NNc1ccccc1C#N)C(C)=O
log2FC [1]: -3.93 | log2FC [2]: -1.36 | log2FC [3]: -1.21 | log2FC [4]: -1.08 | log2FC [5]: -0.983 | log2FC [6]: -0.949 | log2FC [7]: -0.946 | log2FC [8]: -0.889 | log2FC [9]: -0.775 | log2FC [10]: -0.577 | log2FC [11]: -0.514 | log2FC [12]: -0.468 | log2FC [13]: 1.68 | log2FC [14]: 1.27 | log2FC [15]: 1.26 | log2FC [16]: 1.19 | log2FC [17]: 1.02 | log2FC [18]: 0.981 | log2FC [19]: 0.858 | log2FC [20]: 0.826 | log2FC [21]: 0.795 | log2FC [22]: 0.754 | log2FC [23]: 0.667 | log2FC [24]: 0.604 | log2FC [25]: 0.603 | log2FC [26]: 0.594 | log2FC [27]: 0.53 | log2FC [28]: 0.524 | log2FC [29]: 0.506 | log2FC [30]: 0.442 | log2FC [31]: 0.421 | log2FC [32]: 0.42
